{"source": "patent US8999930B2", "about": "“Soluble hydrophobic core carrier compositions for delivery of therapeutic agents, methods of making and using the same” (PharmaIN Corporation, priority 2008, dated 2015)", "assay": "Binding of load molecules to 20PLPEG555C18 carrier (100 kDa filtration, free load by HPLC, Scatchard plot)", "note": "At least one structure is not confirmed: it was looked up by name or label, or the drawing left a doubt."}
{"smiles": "CC(C)C[C@H](NC(=O)[C@H](CCCCN)NC(=O)[C@H](CCCN=C(N)N)NC(=O)[C@H](C)NC(=O)[C@H](CO)NC(=O)[C@H](CCCCN)NC(=O)[C@H](CCCN=C(N)N)NC(=O)[C@H](C)NC(=O)CNC(=O)[C@@H](NC(=O)[C@H](Cc1ccccc1)NC(=O)CNC(=O)CNC(=O)[C@@H](N)Cc1ccccc1)[C@@H](C)O)C(=O)N[C@@H](C)C(=O)N[C@@H](CC(N)=O)C(=O)N[C@@H](CCC(N)=O)C(=O)O", "note": "[Nociceptin, reference compound]", "values": [{"measurement": "Kd", "setting": "Kd to the 20PLPRG555C18, Table 4, read-out: Dissociation Constant (Kd)", "result": "> 100", "unit": "µM"}, {"measurement": "binding affinity to carrier, in words", "setting": "strong = Kd less than 100 uM, carrier 20 kDa polylysine, 55% 5 kDa MPEGsuccinate, remainder stearic acid", "result": "did not bind with strong affinity"}]}
